Assay results published in article PMC8009664.
Results are given in words; binding and its absence hold for the method and conditions named. Some binding calls cover weakened binding; strength is not graded here.

Target: human NHE1 R651-D692 (H2) (human) (UniProt P19634)
Experiment: NMR chemical shifts against peptide concentration; 1H,15N HSQC spectra of NHE1 H2 at different concentrations; both purified

binding: binds weakly
Substance: human NHE1 R651-D692 (H2) (from UniProt P19634 651-692) (peptide)
